According to PubChem BioAssay AID624297 (National Center for Advancing Translational Sciences (NCATS), 2012):
Out of some 340,000 compounds screened, about 6,200 (1.8%) were called active. Inconclusive means that the source gave no clear call. Such entries were picked first, then a sample of the others. The call rests on the fitted dose curve; in most records, active means well fitted activation curve with a large enough effect; inconclusive means small, poorly fitted or top-dose-only effect; inactive means no such curve, though single readings can be large or run the other way. A potency beside an inconclusive call is a rough fit, not a confirmed value.
Potency means the concentration at half of the fitted maximal effect.

Test: A quantitative high throughput screen for small molecules that induce DNA re-replication in SW480 colon adenocarcinoma cells. Further: nearly all actives have a fitted effect of over 55% in size. On re-replication activation: % of control where 0% means no effect.
Conditions: Hoechst DNA content imaging, 48 h; re-replication activation: at 46.1 µM (top of the series) unless noted
Outline: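 Cells (250 per well) received 23 nL compound or DMSO by pin tool and were kept 48 hr at 37 C, 5% CO2. Nuclei were then stained with Hoechst for 40 min and scanned for DNA content.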
With `CCC1(CC)NC(=O)N(CC(=O)Nc2ccc(-n3cnnn3)cc2)C1=O` the “re-replication activation” value was inactive: -0.436%.
For `O=C(O)c1cc(C(F)(F)F)nc2c(C(F)(F)F)cccc12`, the “re-replication activation” value was inactive: -10.9%.
With `CCOC(=O)C1(Cc2cccc(Cl)c2)CCCN(C(=O)c2cc(C(C)C)nn2C)C1` (configuration not stated) the “re-replication activation” value was inactive: 23.4%.
With `CCOC(=O)c1ccc(NC(=S)N(Cc2cccnc2)Cc2ccco2)cc1` the Potency was inconclusive: 29.1 µM [activator, single point].
With `N#Cc1ccc(S(=O)(=O)N2CCCN(c3ccc(C(F)(F)F)cn3)CC2)cc1` the “re-replication activation” value was inactive: 11.6%.
In the case of `O=C(Nc1sc2c(c1C(=O)O)CCC2)c1cccc(Cl)c1`, the “re-replication activation” value is reported as inactive: -9.64%.
In the case of `Cc1cccc2cc(C#N)c(SCC#N)nc12`, the Potency is reported as inconclusive: 9.2 µM [activator, partial curve, poor fit].
In the case of `O=C(NCCSCc1ccco1)Nc1cc(Cl)cc(Cl)c1`, the Potency is reported as inconclusive: 23.1 µM [activator, single point].
For `COc1cc(NC(=O)CSc2ccc(-c3ccco3)nn2)cc(OC)c1`, the Potency was inconclusive: 32.6 µM [activator, partial curve, poor fit].
With `O=C(Nc1nc2c(s1)CCc1ccccc1-2)c1cccs1` the “re-replication activation” value was inactive: 5.69%.
For `O=[N+]([O-])c1cc(CN2CCOCC2)c2cccnc2c1O`, the Potency was inconclusive: 18.4 µM [activator, single point].
With `COCCNC(=S)NNc1ccc(Cl)c(C(=O)O)c1` the Potency was inconclusive: 2.59 µM [activator, full curve, poor fit].
With `CCCC1CC(C)(/C(C)=N\NC(N)=S)OC1=O` (configuration not stated) the Potency was inconclusive: 23.1 µM [activator, single point].
For `CCOc1cccc2cc(C(N)=O)c(=N)oc12`, the Potency was inconclusive: 29.1 µM [activator, single point].
In the case of `CCCCN(C)S(=O)(=O)c1ccc(C(=O)Nc2nnc(CSC)o2)cc1`, the Potency is reported as inconclusive: 31.6 µM [activator, single point].
With `O=C(Nc1ccc2nccnc2c1)Nc1ccccc1Cl` the Potency was inconclusive: 29.1 µM [activator, single point].
For `COc1ccc(OC)c(COC(=O)c2cccc(S(=O)(=O)N3CCCCC3)c2)c1`, the Potency was inconclusive: 29.1 µM [activator, single point].
For `CCOc1ccc2c(c1)C(NC(C)=O)C(=O)N2CCN1CCOCC1` (configuration not stated), the Potency was inconclusive: 4.61 µM [activator, single point].
With `Cc1ccccc1NS(=O)(=O)c1cc(C(=O)NCCC2=CCCCC2)ccc1C` the Potency was inconclusive: 18.4 µM [activator, single point].
For `CCOC(=O)c1c(C=O)c(C)n(Cc2ccc(C)cc2)c1C`, the Potency was inconclusive: 29.1 µM [activator, single point].
In the case of `CCCCCCc1c(O)nc(SCC(=O)O)[nH]c1=O`, the “re-replication activation” value is reported as inactive: -6.87%.
For `FC(F)Sc1ccc(NC(=S)NCC2CCCCC2)cc1`, the Potency was inconclusive: 18.4 µM [activator, partial curve, poor fit].
With `COc1ccc(-c2nc3ccccn3c2NC2CCCCC2)cc1SC1CCCCC1` the Potency was inconclusive: 23.1 µM [activator, single point].
In the case of `CN(C)c1nc2ccccc2n(C)c1=O`, the Potency is reported as inconclusive: 20.6 µM [activator, single point].
In the case of `CC1(C)CC(NC(=O)c2cccc(S(=O)(=O)N(Cc3ccccc3)c3ccccc3)c2)CC(C)(C)N1`, the Potency is reported as inconclusive: 29.1 µM [activator, single point].
For `C=CCn1c(=N)n(CC(=O)c2ccc(Br)s2)c2ccccc21`, the Potency was inconclusive: 29.1 µM [activator, single point].
In the case of `Cc1cc(C)n(C(=O)c2ccc([N+](=O)[O-])cc2N)n1`, the Potency is reported as inconclusive: 2.31 µM [activator, partial curve, poor fit].
With `O=C(CCl)N1CCN2C(=O)c3ccccc3C12c1ccc(Cl)cc1` (configuration not stated) the Potency was inconclusive: 16.4 µM [activator, partial curve, poor fit].
For `C=CCN1C(=O)S/C(=C/c2ccsc2)C1=O`, the “re-replication activation” value was inactive: -6.01%.
With `CNC(=O)c1sc(N2N=C3/C(=C\c4ccccc4)CCCC3C2c2ccccc2)nc1C` (configuration not stated) the Potency was active: 8.2 µM.
In the case of `CC(=O)Nc1ccc(NC(=O)COc2ccc(S(=O)(=O)N3CCCC3)cc2)cc1`, the Potency is reported as inconclusive: 7.31 µM [activator, partial curve, poor fit].
In the case of `CCOc1ccc(CN2CCN(CCCc3ccccc3)CC2CCO)cc1` (configuration not stated), the “re-replication activation” value is reported as inactive: 21.9%.
For `CCN(CC)c1ccc(/C=N/N2CC(=O)NC2=S)cc1`, the Potency was inconclusive: 20.6 µM [activator, single point].
For `N#CCSc1nc(-c2ccccc2)c2cc(Cl)ccc2n1`, the “re-replication activation” value was inactive: 3.48%.
In the case of `O=C(c1ccccc1)C(O)(CN1CCCCC1)c1ccccc1` (configuration not stated), the Potency is reported as inconclusive: 20.6 µM [activator, partial curve, poor fit].
In the case of `C1=CC2=NC34CCCCC3CC3=C(CCCC3)N4C2=CC1=NC1CCCCC1` (configuration not stated), the Potency is reported as inconclusive: 20.6 µM [activator, single point].
For `CC(C)C[C@H]1CN=C(Nc2ccccc2)N1CCCCc1ccccc1`, the “re-replication activation” value was inactive: -2.34%.
With `COC(=O)c1ccc(CSc2nnc(C)s2)cc1` the Potency was inconclusive: 29.1 µM [activator, single point].
In the case of `Cc1cc(F)ccc1S(=O)(=O)Nc1ccccc1C(=O)Nc1ccccc1-c1nc2ccccc2[nH]1`, the Potency is reported as inconclusive: 23.1 µM [activator, single point].
With `COc1cccc(N/C(SC)=C(/C#N)C(N)=O)c1` the Potency was inconclusive: 18.4 µM [activator, single point].
With `CCc1ccc(-c2csc(NC(=O)C3CC(=O)N(c4ccc5c(c4)OCCO5)C3)n2)cc1` (configuration not stated) the Potency was inconclusive: 25.9 µM [activator, single point].
With `Cc1cccn2c(=O)c3cc(C(=O)N4COCC4(C)C)n(Cc4ccccc4)c3nc12` the Potency was inconclusive: 20.6 µM [activator, single point].
For `COc1ccc(-c2cc(-c3nnc(COC(=O)CC4CCCC4)o3)c3ccccc3n2)cc1OC`, the Potency was inconclusive: 1.3 µM [activator, full curve, poor fit].
In the case of `O=C1[C@H](Cc2ccccc2)NCCCC[C@@H](c2ccc(Cl)cc2)N1Cc1ccc(Cl)cc1`, the Potency is reported as inconclusive: 20.6 µM [activator, single point].
For `O=C(Nc1cccc(Cl)c1)Nc1sccc1-c1nc2ccccc2s1`, the Potency was active: 18.4 µM.
In the case of `Cc1cccc(-n2cc(CNCCN3CCOC3=O)c(-c3cccc(F)c3)n2)c1`, the Potency is reported as inconclusive: 35.5 µM [activator, single point].
For `CCOc1cc(NC(=O)CCl)c(OCC)cc1NC(C)=O`, the Potency was inconclusive: 32.6 µM [activator, single point].
With `CCc1c(C)nn(C(=O)/C(C#N)=C\N(C)C)c1C` the “re-replication activation” value was inactive: -27.8%.
In the case of `Cc1cccc2cc(CN(CC(C)C)S(=O)(=O)c3ccccc3)c(=O)[nH]c12`, the “re-replication activation” value is reported as inactive: -7.8%.
In the case of `COC(=O)[C@@H]1CC[C@H](C)[C@@H](c2ccc(C)cc2)N1C(=O)c1ccc(/C=N/OC[C@@H](O)COCc2ccco2)cc1`, the Potency is reported as inconclusive: 16.4 µM [activator, partial curve, poor fit].
In the case of `COc1ccc(N(C(=O)CNC(=O)c2ccco2)C(C(=O)NCC2CCCO2)c2ccccc2)cc1OC` (configuration not stated), the Potency is reported as inconclusive: 2.24 µM [activator, full curve, poor fit].
For `O=C(c1ccc(Oc2ccccc2)cc1)c1nc2c(n1O)CCCC2`, the Potency was inconclusive: 29.1 µM [activator, single point].
In the case of `O=C(OCC1OC(n2cnc3c(N(C(=O)c4ccccc4)C(=O)c4ccccc4)ncnc32)C(O)C1F)c1ccccc1` (configuration not stated), the Potency is reported as inconclusive: 29.1 µM [activator, single point].
With `O=C(O)c1cc(O)ccc1NC(=O)C1CCCO1` (configuration not stated) the “re-replication activation” value was inactive: -0.0336%.
In the case of `O=C(O)/C=C/c1cn(Cc2ccccc2)nc1-c1ccccc1`, the Potency is reported as inconclusive: 6.51 µM [activator, single point].
For `O=c1c(Cl)c2oc3ccccc3nc-2c2ccccc12`, the Potency was inconclusive: 29.1 µM [activator, single point].
With `C(=C1c2ccccc2-c2ccccc21)c1ccncc1` the Potency was inconclusive: 29.1 µM [activator, single point].
In the case of `C/C=C\C=C/C(=O)Nc1cccc(C2=NOC3(C2)C[C@H](C(N)=O)N(C(=O)CC)C3)c1` (some centres not stated), the “re-replication activation” value is reported as inactive: -0.629%.
In the case of `O=C(O)C1=C[C@H](c2coc3ccccc3c2=O)C[C@H](OCc2ccc(CO)cc2)O1`, the Potency is reported as inconclusive: 5.17 µM [activator, partial curve, poor fit].
For `O=C(O)c1ccccc1SC1CC(=O)N(c2ccccc2)C1=O` (configuration not stated), the Potency was inconclusive: 8.2 µM [activator, partial curve, poor fit].
In the case of `COc1ccc(C2c3[nH]c4ccccc4c3CCN2C(=O)c2cc3ncccn3n2)c(F)c1` (configuration not stated), the Potency is reported as inconclusive: 2.06 µM [activator, full curve, poor fit].
In the case of `Cc1ccc(Cn2c(C(C)Nc3nc(-c4ccc(Cl)c([N+](=O)[O-])c4)cs3)nc3cc(C(F)(F)F)ccc32)cc1` (configuration not stated), the Potency is reported as active: 0.92 µM.
With `COc1ccc2[nH]c(C)cc(=O)c2c1` the “re-replication activation” value was inactive: -3.44%.
In the case of `COc1ccc(-c2nn(-c3ccccc3)cc2/C=C2/SC(=S)N(CCCC(=O)O)C2=O)c(C)c1`, the Potency is reported as inconclusive: 23.1 µM [activator, single point].
For `OCC1(Cc2ccccc2)CCN(Cc2ccc(-c3ccco3)cc2)CC1`, the Potency was inconclusive: 23.1 µM [activator, single point].
With `COc1cccc(/C=C/c2ccc3cccc(O)c3n2)c1OC` the Potency was inconclusive: 25.9 µM [activator, single point].
In the case of `CCC(C(=O)Nc1ccc2c(c1)OCCO2)c1ccccc1` (configuration not stated), the Potency is reported as inconclusive: 9.2 µM [activator, partial curve, poor fit].
